## Screening data, single-dose tests

Mtb cholesterol medium: 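Phenotypic screen: M. tuberculosis growth, cholesterol and DPPC medium, 4 days; the read-out is not stated. Concentration: 50 µM. Higher reads as more growth inhibition (inferred: compounds with an IC50 in retests scored well above the rest). Of about 69,000 compounds tested this way, about 370 (0.54%) reached 50% or more in at least one test.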
Mtb glucose medium: 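Phenotypic screen: M. tuberculosis growth, glucose 7H9 medium, 3 days; the read-out is not stated. Compounds at 50 µM. The record gives no direction; compounds that gave an IC50 in retests scored well above the rest, so higher reads as more growth inhibition. About 69,000 compounds were tested under these conditions; 1.1% (about 760) showed 50% or more at least once.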

Results are given as percent effect.
How 0% and 100% were set is not recorded. Most values in the screen are low, and negative values occur.
Compounds were drawn at random from those tested, without regard to their results.
Two or more numbers in one place are separate tests of the same structure; such repeats can differ widely.

- CCN(CC)Cc1ccc(C(=O)NC2CCc3cc(Br)ccc32)o1 (stereo not given) : Mtb cholesterol medium: 4.518%; Mtb glucose medium: 17.37%
- CCc1ncc(-c2nccn2-c2cccc(CC(=O)O)c2)cn1 : Mtb cholesterol medium: -4.969%; Mtb glucose medium: -12.17%
- CN1CCOC(CN(C(=O)COc2ccccc2)c2nccs2)C1 (stereo not given) : Mtb cholesterol medium: 0.7924%; Mtb glucose medium: 2.475% and -0.8575%
- Cn1cc(N2CCC3(CCCN(Cc4ccoc4)C3)C2=O)cn1 (stereo not given) : Mtb cholesterol medium: -4.597%; Mtb glucose medium: 6.185%
- CC(C)n1cc(C(=O)NCC(CO)Cc2cccs2)cn1 (stereo not given) : Mtb cholesterol medium: 4.694%; Mtb glucose medium: 7.832% and -0.2664%
- CCCc1n[nH]c(C2CN(C(=O)CCc3cscn3)CCO2)n1 (stereo not given) : Mtb cholesterol medium: 10.12%; Mtb glucose medium: 29.53%
- CN(Cc1ccccc1)S(=O)(=O)N1C[C@H](C2CC2)[C@@H](N)C1 : Mtb cholesterol medium: 4.578%; Mtb glucose medium: 25.06%
- c1cc(CNCC2CNc3ccnn3C2)cc(OC2CCCCC2)n1 (stereo not given) : Mtb cholesterol medium: -6.729%; Mtb glucose medium: 1.194%
- CC(C)Oc1ccc(-c2csc(Cn3ccc(=O)[nH]c3=O)n2)cc1 : Mtb cholesterol medium: 2.617%; Mtb glucose medium: -19.55% and -2.628%
- Cc1cc(C(F)(F)F)nc(CCNc2nc(C)nc3sccc23)n1 : Mtb cholesterol medium: -19.95%; Mtb glucose medium: -25.67%
- Cc1cc(-c2ccc(=O)n(C3CCN(S(=O)(=O)N(C)C)CC3)n2)c(C)o1 : Mtb cholesterol medium: -12.74%; Mtb glucose medium: -10.35%
- COc1cc(C2CC(=O)Nc3c2nc2n3CCCC2)cc(OC)c1O (stereo not given) : Mtb cholesterol medium: 8.136%; Mtb glucose medium: 2.738%
- CC(C)n1nc(Cn2cccn2)c2c1CN(C1CCOC1)C2.O=C(O)C(F)(F)F (stereo not given) : Mtb cholesterol medium: -11.07%; Mtb glucose medium: -19.04%
- O=S(=O)(NC1CCCCC12OCCO2)c1ccc2c(c1)OCCO2 (stereo not given) : Mtb cholesterol medium: -13.26%; Mtb glucose medium: 4.716% and -38.16%
- CN(Cc1nnc(-c2ccco2)o1)C(C(N)=O)c1cccc(F)c1 (stereo not given) : Mtb cholesterol medium: 6.658%; Mtb glucose medium: 18.15%
- CCN1CCC(CNS(=O)(=O)N2CCc3ccccc3C2)C1 (stereo not given) : Mtb cholesterol medium: 20%; Mtb glucose medium: 0.7918%
- [H][C@@]12CN(C(=O)c3ccc(C)cc3)C[C@]1([H])CN(c1ncccn1)C2 : Mtb cholesterol medium: 5.797%; Mtb glucose medium: -7.257% and 3.038%
- O=C(O)C(F)(F)F.[H][C@@]12CN(C)C[C@]1(C(=O)NC)CCCN2c1ncccn1 : Mtb cholesterol medium: -3.445%; Mtb glucose medium: -10.34%
- Cl.[H][C@@]12NCCCCC[C@@]1([H])N(S(=O)(=O)N1CCCC1)C[C@H]2c1cccc(F)c1 : Mtb cholesterol medium: -14.8%; Mtb glucose medium: -9.67%
- O=C(NCCc1cc(N2CCOCC2)nc(NC2CC2)n1)C1CC1 : Mtb cholesterol medium: -9.722% and -10.5%; Mtb glucose medium: -21.03%
- CC(C)c1ccc(OCCC(=O)N2CCC(C(N)=O)CC2)cc1 : Mtb cholesterol medium: 10.48%; Mtb glucose medium: 11.06%
- CC(C)Nc1cccc(CNC(=O)N2CCC[C@@H]2CO)c1 : Mtb cholesterol medium: 17.73%; Mtb glucose medium: 6.52%
- CCN1CCC(NC(=O)CNC(C)Cn2cccn2)CC1 (stereo not given) : Mtb cholesterol medium: -3.072%; Mtb glucose medium: -5.436%
- Cc1cc(CN(C)C(=O)c2ccc(OCC(F)(F)F)nc2)no1 : Mtb cholesterol medium: 17.06%; Mtb glucose medium: 24.34%
- COc1ccc(C(=O)NC(CC(=O)O)c2cccs2)c(OC)c1 (stereo not given) : Mtb cholesterol medium: -37.24%; Mtb glucose medium: -23.58%
- Cc1c(CN2CCC(C(=O)O)(n3cccn3)CC2)oc2ccccc12 : Mtb cholesterol medium: -0.04645%; Mtb glucose medium: -13.31%
- CN1CCN(c2ccc(Cl)cc2NC(=O)c2ccco2)CC1 : Mtb cholesterol medium: 11.32%; Mtb glucose medium: 26.9%
- CC(=O)N1CCC(CCc2ccnc(Nc3ccccn3)c2)CC1 : Mtb cholesterol medium: 8.726% and -21.17%; Mtb glucose medium: 4.628%
- CCc1noc(C(C)N2CCC(O)CC2)n1 (stereo not given) : Mtb cholesterol medium: 10.72%; Mtb glucose medium: 2.442%
- CN(Cc1nnc(C2CC2)n1C)C1CCN(Cc2ccncc2)C1 (stereo not given) : Mtb cholesterol medium: 7.163%; Mtb glucose medium: 8.946% and -3.082%
- COc1cc(NC(=O)CCn2nc(-c3cccs3)oc2=O)cc(OC)c1 : Mtb cholesterol medium: -9.895%; Mtb glucose medium: -11.94%
- CN(Cc1ncc(C(C)(C)C)o1)CC1CCCN1c1cccnn1 (stereo not given) : Mtb cholesterol medium: -34.35%; Mtb glucose medium: -5.131%
- c1ccc(OCCN2CCCCC2Cn2cncn2)cc1 (stereo not given) : Mtb cholesterol medium: -44.63%; Mtb glucose medium: -20.87%
- CCCSCC(=O)NS(=O)(=O)c1ccc2c(c1)OCCO2 : Mtb cholesterol medium: -17.84%; Mtb glucose medium: -1.734%
- Cc1ccc(C(=O)N2CCc3ncnc(-c4cnn(C)c4)c3CC2)o1 : Mtb cholesterol medium: 9.836%; Mtb glucose medium: -24.29%
- CC(=O)N[C@@H]1Cc2ccccc2[C@H]1Nc1cc(C2CC2)ncn1 : Mtb cholesterol medium: -6.705%; Mtb glucose medium: -38.9%
- Cn1cc(C2CCCN2C(=O)Cn2ccc3ccc(Cl)cc32)cn1 (stereo not given) : Mtb cholesterol medium: 22.4%; Mtb glucose medium: -3.905% and -0.8367%
- c1csc(-c2nc(CNC3CCc4ncnn4C3)cs2)c1 (stereo not given) : Mtb cholesterol medium: -1.563%; Mtb glucose medium: 5.453%
- O=C1NC2(CCN(C(=O)c3ccnnc3)CC2)CC1c1ccccc1 (stereo not given) : Mtb cholesterol medium: -0.7529%; Mtb glucose medium: -40.97%
- CC(C)Cc1cc(NC(=O)c2ccncc2)n(C)n1 : Mtb cholesterol medium: 3.127%; Mtb glucose medium: 38.13%
- CC(NC(=O)Cc1cccs1)(C(N)=O)c1cccc(Cl)c1 (stereo not given) : Mtb cholesterol medium: 1.469%; Mtb glucose medium: 4.351%
- CCN1CCN(CCCNc2ncccn2)CC1 : Mtb cholesterol medium: -1.957%; Mtb glucose medium: 7.523%
- Cc1cnn(CC2CCCN2C(=O)c2cc3c(F)cccc3[nH]2)c1 (stereo not given) : Mtb cholesterol medium: -5.26%; Mtb glucose medium: 9.692%
- CC(C)c1nc2n(n1)CC(NCc1cc3ccccc3o1)CC2 (stereo not given) : Mtb cholesterol medium: 12.87%; Mtb glucose medium: 5.222% and 11.55%
- CCN1CC2(CC1=O)CN(Cc1cccs1)CCN(C(=O)C(C)C)C2 (stereo not given) : Mtb cholesterol medium: -6.545% and -3.589%; Mtb glucose medium: 6.388%

For reference, 3 entries once more:

* CC(C)Nc1cccc(CNC(=O)N2CCC[C@@H]2CO)c1 : Mtb cholesterol medium: 17.73%; Mtb glucose medium: 6.52%
* CN1CCOC(CN(C(=O)COc2ccccc2)c2nccs2)C1 (stereo not given) : Mtb cholesterol medium: 0.7924%; Mtb glucose medium: 2.475% and -0.8575%
* CC(C)n1cc(C(=O)NCC(CO)Cc2cccs2)cn1 (stereo not given) : Mtb cholesterol medium: 4.694%; Mtb glucose medium: 7.832% and -0.2664%

From ChEMBL document CHEMBL3988442, “University of Dundee, Small-Polar-MMV Screening Library” (2021).